Publication PMC12956874
No constants are given. Whether binding was seen depends on the method and setting. For part of these data: Binding can be weak; no strength is given. For part of these data: Tags and fused reporters may be left off the sequences shown.

Legend:
[1] = target: T1, GAL4 BD-ScSgt2 1-346 (S. cerevisiae) (UniProt Q12118); test: two-hybrid
T1 sequence: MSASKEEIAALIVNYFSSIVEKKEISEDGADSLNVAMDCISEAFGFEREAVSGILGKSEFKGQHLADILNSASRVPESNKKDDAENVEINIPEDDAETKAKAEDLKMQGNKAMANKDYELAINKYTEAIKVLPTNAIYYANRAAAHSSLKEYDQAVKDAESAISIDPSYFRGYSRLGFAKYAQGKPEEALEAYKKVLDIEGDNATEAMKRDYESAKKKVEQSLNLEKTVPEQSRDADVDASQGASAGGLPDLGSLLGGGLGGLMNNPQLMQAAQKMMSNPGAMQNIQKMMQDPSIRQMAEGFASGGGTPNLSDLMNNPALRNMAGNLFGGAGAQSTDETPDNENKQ

[2] = target: T2, PEX38 89-103 wildtype 15-mer peptide (BS2) (T. brucei); test: peptide or protein array; both purified
T2 sequence (peptide): DDKFNAFLDLLRKKG

Substance | binding [1] | binding [2]
GAL4 AD-TbPEX19 1-285 (full-length) (T. brucei) | no binding | 
GAL4 AD-TbPEX19 31-285 (Δ30aa) (T. brucei) (domain or fragment) | no binding | 
GST-TbPEX19 1-285 (full-length) (T. brucei) |  | binds
